The supplement of paper PMC3334620
In all, about 33,000 sequences were measured (“E-score (-0.5 to 0.5)”: median about -0.0034, highest 2% from about 0.25 on). This is one part of the list.

target: T1, Yap3 (UniProt P38749); assay: PBM E-score (8-mer binding enrichment) (E-score (-0.5 to 0.5)); higher = stronger / more preferred TF binding; conditions: protein concentration: 100 nM; construct: GST-full length
T1 sequence: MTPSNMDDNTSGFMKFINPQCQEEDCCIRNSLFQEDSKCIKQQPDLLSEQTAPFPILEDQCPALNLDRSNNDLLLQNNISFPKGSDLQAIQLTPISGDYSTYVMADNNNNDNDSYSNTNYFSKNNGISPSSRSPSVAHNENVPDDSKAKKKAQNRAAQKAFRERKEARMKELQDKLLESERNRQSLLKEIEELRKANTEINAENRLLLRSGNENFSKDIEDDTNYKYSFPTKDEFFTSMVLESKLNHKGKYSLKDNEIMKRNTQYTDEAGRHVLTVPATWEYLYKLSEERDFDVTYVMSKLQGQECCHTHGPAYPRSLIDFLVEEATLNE
Method in brief: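 Masliner-normalised scans of fluorescent anti-GST signal were the basis for scoring. That signal came from GST-tagged yeast transcription factors applied at about 100-200 nM to double-stranded universal all-10-mer Agilent arrays on fresh or once-stripped slides. Each ungapped eight-base word, pooled with its reverse complement, received an E-score from the Universal PBM Analysis Suite.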

In order of rising “PBM E-score” value:
1. CCCCCCAA  -0.348
2. ACCAGTGC  -0.345
3. CGGCTCCC  -0.329
4. GGGTCGGA  -0.298
5. CCCACGGG  -0.296
6. CAAGCTCC  -0.295
7. AAGGGTCC  -0.285
8. AGGCGCCC  -0.244
9. CCCGTGGA  -0.231
10. GCCTTACC  -0.227
11. AAGACTCC  -0.212
12. TCCCCAGA  -0.2
13. GGTTAGGA  -0.198
14. GAAGCCTC  -0.198
15. AAGGAAGG  -0.194
16. ATGCGCTG  -0.187
17. ACCCTGGA  -0.181
18. CGCTCCTA  -0.177
19. ACGCTTGC  -0.177
20. ACTCGGTG  -0.174
21. GGGTTGGA  -0.172
22. CAGTGGGA  -0.164
23. CGGCTGGA  -0.164
24. CGGGTGTC  -0.15
25. CGGAGAAG  -0.149
26. GGCACCAC  -0.148
27. AACTGTGC  -0.147
28. CCTGCCAA  -0.144
29. AACGTCCC  -0.14
30. ACTGGTGG  -0.139
31. GGCGCAAC  -0.138
32. TGAGTCCA  -0.133
33. GAACGGCC  -0.132
34. GGGAACGA  -0.128
35. CCCTGTCA  -0.127
36. AGGGCAGA  -0.127
37. AATGCAAT  -0.126
38. CTATACAC  -0.122
39. GACTGGAA  -0.121
40. ATCGGAGA  -0.118
41. GGTCCCGA  -0.111
42. AGGGTACT  -0.11
43. AGAAGGCG  -0.107
44. GCTGTCAA  -0.106
45. CACTAGTC  -0.105
46. CACGCTAC  -0.105
47. ACTACCCC  -0.099
48. AGCAAAAG  -0.0951
49. GGTGCGGA  -0.0917
50. GAACCTCA  -0.0916
51. ACCTCTAG  -0.09
52. GAACTCTC  -0.0889
53. AAGTCCTA  -0.0884
54. CCAGCTAC  -0.0877
55. CTTACGGA  -0.0822
56. CTGTGACC  -0.0819
57. AACGCTGA  -0.0776
58. AGTCTTCG  -0.075
59. AACTCTCA  -0.069
60. GAAGTACA  -0.0666
61. ATGTAACC  -0.0665
62. TACTTAAA  -0.0635
63. CTCTTTCC  -0.0604
64. CGACAGTA  -0.0588
65. ACGAACCT  -0.0579
66. AACTAGCT  -0.0564
67. CCAGTCGA  -0.0553
68. ACACGGAG  -0.0548
69. ACTAGCCA  -0.0537
70. CGGTAAGA  -0.053
71. AAAGACGC  -0.0497
72. AAAGGAGC  -0.0479
73. AGTTCCGG  -0.0393
74. CGCCGCAA  -0.0367
75. GCGCCTAC  -0.0312
76. CGAGTGTC  -0.0309
77. CTCCTGGC  -0.0301
78. CTAGTATA  -0.0257
79. AGGTTTTA  -0.0254
80. AAACTTGG  -0.0251
81. CACCTGAC  -0.024
82. ATAGCCTC  -0.0226
83. ACTCAGAG  -0.0226
84. CAGGATGA  -0.0226
85. AAGTGAGT  -0.0165
86. GGGTTTCA  -0.0128
87. GCCAAGAA  -0.0116
88. GCACCGTA  -0.0116
89. AGACTCAT  -0.0103
90. CGCGCTTC  -0.00635
91. AGTACATC  0.00325
92. ATCGAGCG  0.00361
93. GATCTACA  0.00555
94. CGCAGGAA  0.0102
95. CCTACTGA  0.0127
96. ATCGCGCC  0.019
97. CGATTGCC  0.0196
98. CATTGCGC  0.0202
99. CCTAGAAA  0.022
100. TAAGCCCA  0.023
101. ACACGCAT  0.0231
102. CGATCGCC  0.0236
103. ATCGCGTC  0.0291
104. AAACAGGG  0.0316
105. ACAAAGTA  0.0375
106. AGAGGACG  0.0405
107. AATACGGT  0.0519
108. AATTCCCT  0.0542
109. AATCGGAT  0.0545
110. TCTACCAA  0.0569
111. ACGATACA  0.0599
112. GTGCACTA  0.0636
113. CAATATGC  0.0657
114. GTGAACAA  0.0727
115. CGAACCAG  0.0735
116. GCCGGATA  0.0772
117. CCGCCGTA  0.0805
118. CGGAGCGA  0.0816
119. ATAAGCTG  0.0821
120. TGTCAACA  0.0838
121. ACGCCCAA  0.0861
122. GAGGAACA  0.0869
123. GTGGACAA  0.0878
124. CAGACAAC  0.0898
125. AGTGCACG  0.09
126. ATCCAGCG  0.0902
127. AGTGAATA  0.0943
128. ACTTGACT  0.0954
129. TCAGAACA  0.0982
130. ATTCGGGG  0.1
131. AACAGCTT  0.1
132. ATAGACCA  0.103
133. CGCACAAA  0.107
134. ACCCCGAA  0.111
135. TAGACATA  0.112
136. AGTGCTAG  0.112
137. AGTAATAC  0.113
138. AATCTGTC  0.115
139. CAGCGGCG  0.117
140. AGCGCCTA  0.118
141. CAGCTTTA  0.119
142. CTGGATCC  0.121
143. ACAGACCT  0.123
144. ATATTGCC  0.124
145. CTACTTGC  0.126
146. CCTATCAA  0.13
147. CACCAAAC  0.135
148. AAGTGTAT  0.136
149. CTCGATAC  0.139
150. CAAGTGGC  0.152
151. AACACACC  0.155
152. ATCACCGA  0.161
153. CGCGCTAC  0.161
154. CTATTACA  0.163
155. ATTACTTG  0.165
156. GGTTGTTA  0.166
157. AAAGTAAC  0.166
158. CATCAAAC  0.173
159. GCGAGTAA  0.173
160. ATGCGTTC  0.174
161. CCCACAAA  0.176
162. TCTCAAAA  0.176
163. AAATAGTG  0.187
164. ATTCGGAA  0.196
165. TATCTCCA  0.198
166. AATGATGT  0.211
167. AGTAAGAT  0.231
168. AACTACAA  0.233
169. TGTAAAAA  0.236
170. AACCATAT  0.266
171. GGAGTAAA  0.267
172. TAAGTATA  0.275
